The campaign covered roughly 390,000 compounds. About 60 (0.02%) were called active. Inconclusive results, whose numbers are uncertain, are shown with a selection of clear calls. No stated cut-off is given here; in the data, active means activity change below about -50%; inconclusive means between about -30% and that limit; inactive means weaker than that.
molecular target: Mucolipin-1 (Homo sapiens) (UniProt Q9GZU1); assay: qHTS for Inhibitors of the Human Mucolipin Transient Receptor Potential 1 (TRPML1); details: TRPML1-inducible cells, Ca2+ dye fluorescence, FDSS; hits give low values; inhibition of EC80 agonist-evoked calcium signal;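 further: stimulus is agonist 54-4 at its EC80 concentration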
In short: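 Tet-induced TRPML1-DL cells loaded with Ca8 no-wash calcium dye were read kinetically on FDSS. Compound addition was followed by EC80 agonist 54-4 (4 uM final); inhibition was read over 110 s.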
On the % scale 0 is the no-effect control and ±100 the full control effect.

The chains behind the UniProt entries cited, without tags or fusion partners.
UniProt Q9GZU1, whole entry, looked up: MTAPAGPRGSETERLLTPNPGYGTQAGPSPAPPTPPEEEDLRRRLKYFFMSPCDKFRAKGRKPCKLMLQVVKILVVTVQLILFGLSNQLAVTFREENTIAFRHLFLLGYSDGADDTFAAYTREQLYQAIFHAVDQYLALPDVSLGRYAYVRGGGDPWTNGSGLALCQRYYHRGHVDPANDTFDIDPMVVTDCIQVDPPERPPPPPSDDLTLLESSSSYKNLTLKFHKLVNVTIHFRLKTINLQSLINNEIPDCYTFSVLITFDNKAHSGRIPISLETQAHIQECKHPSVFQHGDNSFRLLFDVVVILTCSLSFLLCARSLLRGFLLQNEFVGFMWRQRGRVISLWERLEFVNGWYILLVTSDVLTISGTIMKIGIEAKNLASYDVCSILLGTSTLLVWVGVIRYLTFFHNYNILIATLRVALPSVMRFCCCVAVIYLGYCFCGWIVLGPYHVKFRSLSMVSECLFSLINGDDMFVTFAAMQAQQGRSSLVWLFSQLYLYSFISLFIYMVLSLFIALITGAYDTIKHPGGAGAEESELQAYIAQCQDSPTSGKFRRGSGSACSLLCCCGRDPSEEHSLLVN

SMILES | activity change, negative = inhibition
Nc1c(N2CCCC2)c2ccccc2oc1=O | inactive: 20.1%
Cc1nnc2c(Nc3cccc(O)c3)nc3ccccc3n12 | inactive: 4.51%
O=C(c1ccccc1SCc1ccccc1)N1CCCCCC1 | inconclusive: -40.3%
COc1ccc(NC(=O)Cn2c(=O)n(Cc3ccc(C(=O)NCc4ccccc4Cl)cc3)c(=O)c3ccccc32)cc1OC | inconclusive: -31.9%
C=CCN(CC=C)Cc1cc(=O)oc2cc(OC)c(Cl)cc12 | inactive: 63.4%
O=C(COc1ccc(F)cc1)OCc1cc(=O)n2nc(C3CCCCC3)sc2n1 | inconclusive: -37%
c1ccc(SCCN2CCc3ccccc3C2)cc1 | inconclusive: -36.4%
O=C(CSc1ncc2c(n1)-c1ccc(Cl)cc1N(Cc1ccccc1)S2(=O)=O)Nc1ccc(F)c(F)c1 | inconclusive: -30.7%
Cc1ccc(S(=O)(=O)N2CCN(C(=O)c3cc4c(C)nn(-c5ccccc5)c4s3)CC2)cc1 | inconclusive: -41.1%
Cc1cc(C)cc(OCC(=O)OCC(=O)Nc2c(C)n(C)n(-c3ccccc3)c2=O)c1 | inconclusive: -41.7%
COc1ccc(CNS(=O)(=O)c2c(C(=O)N3CCCCC3)c(C)n(C)c2C)cc1 | inconclusive: -31.6%
CC(C)(c1cc(Cl)c(O)c(CN2CCOCC2)c1)c1cc(Cl)c(O)c(CN2CCOCC2)c1 | inactive: -0.926%
CC[n+]1c(/C=C/C=C/N(C(C)=O)c2ccccc2)sc2ccccc21 | inactive: -10.1%
O=C(CN1C(=O)COc2ccc(S(=O)(=O)NC3CCCC3)cc21)Nc1ccc(Cl)cc1F | inactive: -3.05%
COc1cc(OC)c(C(=O)OCN2C(=O)c3ccccc3C2=O)cc1OC | inconclusive: -34.8%
CCOC(=O)c1nn(-c2ccc(Cl)cc2)c2nnc(Cc3ccc(C)cc3)c(=O)n12 | inactive: 7.06%
COC(=O)C(C)Oc1ccc(Cc2ncc(C(F)(F)F)cc2Cl)cc1 (stereo not drawn) | inconclusive: -47%
CCOC(=O)Nc1ccc(OCc2nnc3c4ccccc4c(C)nn23)cc1 | inconclusive: -31.3%
CC(C)(C)n1ncc2c(=O)n(Cc3ccc(C#N)c(F)c3)cnc21 | inactive: 8.23%
Cc1ccccc1NC(=O)Cn1cc(C(=O)c2cccs2)c2ccccc21 | inconclusive: -33.9%
COc1ccccc1NC(=S)NC(=O)c1ccc(-c2ccc(Cl)cc2)o1 | inconclusive: -30.8%
N#C/C(=C/c1ccc(O)c(O)c1)c1nc2ccccc2[nH]1 | inactive: -6.17%

SMILES | activity change, negative = inhibition
O=C(NN=Cc1cccc([N+](=O)[O-])c1)c1cc(-c2cccnc2)nc2ccccc12 | inconclusive: -37.9%
Cc1ccc(C2=NS(=O)(=O)N(C)C(C(=O)N(C)C3CCCCC3)=C2)cc1 | inconclusive: -33.8%
Cc1ccc(NCc2nc3ccccc3n2C)cc1 | inactive: -8.24%
O=C(Nc1ccc(N2CCOCC2)cc1)c1cccc2ccccc12 | inconclusive: -35.4%
O=C1OC(/C=C/c2ccc(Cl)cc2Cl)=NC/1=C\c1cccs1 | inactive: 8.89%
COC(=O)CNC(=O)c1ccc(F)cc1 | inconclusive: -34.5%
O=C(/C=N/NC(=O)c1ccc(Cl)cc1Cl)c1ccccc1 | inconclusive: -43.7%
Cc1ccc(CSc2nc3ccccc3c(=O)n2C)cc1 | inconclusive: -32.4%
CCCn1c(CN2CCN(c3cccc(Cl)c3)CC2)nc2c1c(=O)n(C)c(=O)n2C | inconclusive: -41.5%
Cc1ccc(NC(=O)/C=C/c2ccc3c(c2)OCO3)nc1 | inactive: -5.6%
COc1ccccc1NC(=O)CSc1nc(-c2ccc(C(C)(C)C)cc2)c(C#N)c(=O)[nH]1 | inconclusive: -38.6%
O=C1C2C3CCCC3=C3CCCC3C2C(=O)N1c1ccc(Cl)cc1 (stereo not drawn) | inconclusive: -33.8%
CC(=O)c1c[nH]c(C(=O)NC2CCCCCC2)c1 | inconclusive: -34.5%
CC[n+]1c(/C=C/c2ccc(N(C)C)cc2)ccc2ccccc21 | inactive: 8.15%
Cc1csc2nc(-c3cccc(NC(=O)C(C)C)c3)cn12 | inconclusive: -36.6%
COCCCNc1ncnc2c1nc1n2CCCC1 | inconclusive: -41.1%
CC1CCN(C(=O)CSc2nc3c(c(=O)n2C)SC(C)C3)CC1 (stereo not drawn) | inconclusive: -43.2%
CCCCN(CC)CCCNC(=O)CCN1N=C(c2ccc(OC)cc2)CCC1=O | inactive: 9.49%
COCc1c(C(=O)NCC(c2ccco2)N2CCCC2)oc2ccccc12 (stereo not drawn) | inconclusive: -33.4%
CCOc1ccc(Br)cc1S(=O)(=O)Nc1cccc(S(=O)(=O)N(C)C)c1 | inconclusive: -33.6%
COC(=O)c1sccc1OC(C)C(C)=O (stereo not drawn) | inconclusive: -31.6%
CCOC(=O)CC1C(=O)NCCN1Cc1cccc(OC)c1 (stereo not drawn) | inactive: -2.31%

SMILES | activity change, negative = inhibition
CCSC1=NC(C)(C)C=C(/C=C/c2ccc(Cl)cc2Cl)N1 | inactive: 11.3%
CC1=C(C(=O)Nc2ccccc2)C(c2cccn2C)n2ncnc2N1 (stereo not drawn) | inactive: -4.69%
Cn1cccc1/C=N/NC(=O)c1cccs1 | inactive: -1.05%
CC(C)CCNC(=O)CN1N=C(c2ccc(Cl)cc2)CCC1=O | inconclusive: -31.4%
COc1ccc(C(=O)NCc2nnc(SCC(=O)NC3CCCC3)o2)cc1 | inconclusive: -38.2%
CC(C)Cn1c(=O)c(C(=O)Nc2ccncc2)c(O)c2ccccc21 | inconclusive: -30.1%
c1ccc2c(Nc3ccc(N4CCOCC4)cc3)nc(N3CCOCC3)nc2c1 | inconclusive: -31.8%
COCCn1c(C)cc(C(=O)COC(=O)c2ccc3c(c2)NC(=O)CS3)c1C | inconclusive: -42.9%
O=c1[nH]cnc2sc(-c3ccccc3)cc12 | inactive: -11.9%
Cc1nn(-c2ccccc2)c(C)c1/C=N/n1c(-c2ccccc2Br)n[nH]c1=S | active: -69.2%
O=C(Nc1cc(F)ccc1F)N1CCC(CN2CCCC2)CC1 | inconclusive: -32.8%
CC1CCCCN1CCCNC(=O)Cn1ncc2c([nH]c3ccccc32)c1=O (stereo not drawn) | inconclusive: -38.4%
CSc1nc2cc(S(=O)(=O)N3CCOCC3)ccc2s1 | inconclusive: -37.8%
Cc1cc(N/N=C/c2ccccc2F)c2ccccc2n1 | inconclusive: -33.4%
O=C(COc1ccccc1F)OCc1cc(=O)n2nc(-c3cccs3)sc2n1 | inconclusive: -33.2%
Cc1cccc(NS(=O)(=O)c2ccc3[nH]c(=O)ccc3c2)c1C | inconclusive: -49.4%
O=c1c(Br)c(N2CCCC2)cnn1-c1ccccc1 | inactive: -15.1%
O=C(c1cccc([N+](=O)[O-])c1)N1CCN(C/C=C/c2ccccc2)CC1 | inconclusive: -33.6%
Nc1cc(=O)[nH]c(=O)n1-c1ccc(Cl)cc1 | active: -76.9%
COc1ccc2nc(COC(=O)c3cccc([N+](=O)[O-])c3)c(C(C)=O)[n+]([O-])c2c1 | inconclusive: -31.6%
N#CC1(NC(=O)COC(=O)c2ncc(Cl)c(Cl)c2Cl)CCCCC1 | inactive: -0.319%
CN(C)S(=O)(=O)c1cc(NC(=O)COC(=O)CC2Sc3ccccc3NC2=O)ccc1Cl (stereo not drawn) | inactive: 38.7%

Nothing new here: entries from further up.
SMILES | activity change, negative = inhibition
CCSC1=NC(C)(C)C=C(/C=C/c2ccc(Cl)cc2Cl)N1 | inactive: 11.3%
CC1=C(C(=O)Nc2ccccc2)C(c2cccn2C)n2ncnc2N1 (stereo not drawn) | inactive: -4.69%
Cn1cccc1/C=N/NC(=O)c1cccs1 | inactive: -1.05%
CC(C)CCNC(=O)CN1N=C(c2ccc(Cl)cc2)CCC1=O | inconclusive: -31.4%
COc1ccc(C(=O)NCc2nnc(SCC(=O)NC3CCCC3)o2)cc1 | inconclusive: -38.2%
CC(C)Cn1c(=O)c(C(=O)Nc2ccncc2)c(O)c2ccccc21 | inconclusive: -30.1%
c1ccc2c(Nc3ccc(N4CCOCC4)cc3)nc(N3CCOCC3)nc2c1 | inconclusive: -31.8%
COCCn1c(C)cc(C(=O)COC(=O)c2ccc3c(c2)NC(=O)CS3)c1C | inconclusive: -42.9%
O=c1[nH]cnc2sc(-c3ccccc3)cc12 | inactive: -11.9%
Cc1nn(-c2ccccc2)c(C)c1/C=N/n1c(-c2ccccc2Br)n[nH]c1=S | active: -69.2%
O=C(Nc1cc(F)ccc1F)N1CCC(CN2CCCC2)CC1 | inconclusive: -32.8%
CC1CCCCN1CCCNC(=O)Cn1ncc2c([nH]c3ccccc32)c1=O (stereo not drawn) | inconclusive: -38.4%
CSc1nc2cc(S(=O)(=O)N3CCOCC3)ccc2s1 | inconclusive: -37.8%
Cc1cc(N/N=C/c2ccccc2F)c2ccccc2n1 | inconclusive: -33.4%
O=C(COc1ccccc1F)OCc1cc(=O)n2nc(-c3cccs3)sc2n1 | inconclusive: -33.2%
Cc1cccc(NS(=O)(=O)c2ccc3[nH]c(=O)ccc3c2)c1C | inconclusive: -49.4%
O=c1c(Br)c(N2CCCC2)cnn1-c1ccccc1 | inactive: -15.1%

More entries.

SMILES | activity change, negative = inhibition
CN(C1CCCCC1)S(=O)(=O)c1cccc(C(=O)OCC(=O)NC2CCCc3ccccc32)c1 (stereo not drawn) | inactive: 11.3%
Cc1cccc(C(=O)Nc2cc(=O)n(C)c(=O)n2C)c1 | inconclusive: -33.8%
O=[N+]([O-])c1ccc(-c2cn3c(n2)SCC3)cc1 | inconclusive: -32.5%
CNCCCOc1ccc(Cl)cc1C(C)(C)C | inactive: 0.439%
CCn1c(C)[n+](CCCS(=O)(=O)[O-])c2cc(Cl)c(Cl)cc21 | inactive: -2.63%
Cc1ccc(-c2nc3scc(CCNS(=O)(=O)c4ccc(F)c(C)c4)n3n2)cc1 | inconclusive: -36.2%
CC1=C(C(=O)OCc2ccccc2)C(c2ccccc2)NC(=O)N1CCCCCC(=O)O (stereo not drawn) | inactive: -2.44%
C=CCn1c(NS(=O)(=O)c2ccccc2)c(S(=O)(=O)c2ccc(C)cc2)c2nc3ccccc3nc21 | inconclusive: -34.2%
COc1cccc(CN(C)C(=O)c2cccc(NC(=O)CC3SC(N4CCCCC4)=NC3=O)c2)c1OC (stereo not drawn) | inconclusive: -36.2%
Cc1cc(-c2nnc(SCC(=O)Nc3ccc(C(F)(F)F)cc3)n2C)no1 | inconclusive: -33.1%
CCCCc1nnc(NC(=O)C(C)Sc2nc(N)cc(=O)[nH]2)s1 (stereo not drawn) | inconclusive: -32.4%
Oc1c(Br)cc(Br)cc1CNc1cccc2cccnc12 | inactive: -11.1%
CC1CCC2(CC1)NC(=O)N(CC(=O)NC1(C#N)CCCCC1)C2=O (stereo not drawn) | inactive: 4.5%
COc1ccc(C(=O)N/N=C/c2ccc(N3CCOCC3)s2)cc1OC | inactive: -1.76%
O=C(c1cc([N+](=O)[O-])cc([N+](=O)[O-])c1)N1CCOCC1 | inconclusive: -43%
O=C(CS(=O)(=O)c1ccccc1)Nc1nnc(Cc2ccccc2)s1 | inconclusive: -32.5%
COc1ccc(-c2nn(C)c3sc(C(=O)Nc4cc(OC)c(OC)c(OC)c4)cc23)cc1OC | inactive: -3.8%
CC1CCC2(CC1)NC(=O)N(CC(=O)Nc1ccc3c(c1)OCCO3)C2=O (stereo not drawn) | inconclusive: -37.2%
Cc1oc(-c2cccc(Cl)c2)nc1CN1CCCC(C(=O)N2CCN(c3ccc(F)cc3)CC2)C1 (stereo not drawn) | inconclusive: -44.2%
CCOC(=O)N1CCN(C(=O)c2ccc3c(=O)n4c(nc3c2)CCCCC4)CC1 | inactive: -6.01%
CCCc1nnc(NC(=O)c2cn(CC)c3cc(N4CCN(C)CC4)c(F)cc3c2=O)s1 | inconclusive: -34.7%
CCC(=O)Nc1ccc2nc3c(=O)n(C)c(=O)n(C)c3nc2c1 | inactive: -5.79%

Reference: PubChem BioAssay AID624415 (National Center for Advancing Translational Sciences (NCATS), 2012)
